Several values for one entry are separate records, joined by “and”; a condition that tells them apart may be missing. Equal entries are not always repeated. ± gives the standard deviation of the averaged measurements. Some of the results follow. This data set is noisy: repeats of one test often differ as much as different tests do.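 U2OS cells expressing ACE2 were combined with U2OS cells expressing full-length spike, and imaging quantified fusion as the fraction of nuclei displaying both cell types' fluorescent markers. Non-toxic compounds with a fusion z-score under -3, i.e., over three standard deviations below the plate's DMSO wells, are called inhibitory hits.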

This test concerns U2OS ACE2 x SARS-CoV-2 spike co-culture. Briefly: cell-cell fusion (fraction fused) z-score vs plate DMSO control; higher = more fusion. Conditions: 30 µM; 5 h; toxicity class: non-toxic, passed QC.
For `COc1cc2ncnc(-n3nc(-c4ccccn4)nc3N)c2cc1OC`, the “cell-cell fusion (z-score)” value was inactive: 1.48.

As for `CC(=O)O[C@H]1C[C@@H](OC(C)=O)C(C)(C)C2C[C@@H](OC(C)=O)[C@]3(C)C(CC[C@@]4(C)[C@H](c5ccoc5)OC(=O)[C@H]5O[C@]543)[C@]21C` (some centres undefined), the “cell-cell fusion (z-score)” value is inactive: 2.27.

`Cc1cc2nc3c(=O)[nH]c(=O)nc-3n(C[C@H](O)[C@H](O)[C@H](O)COP(=O)([O-])O)c2cc1C.[Na+]` [Flavin mononucleotide]: the “cell-cell fusion (z-score)” value is inactive: 2.68.

On to `CCn1cc(C(=O)O)c(=O)c2cc(F)c(N3CCNC(C)C3)c(F)c21.Cl` (centres undefined) [Lomefloxacin hydrochloride], for which the “cell-cell fusion (z-score)” value is inactive: 2.62.

On to `O=c1c(O)c(-c2ccccc2)oc2cc(O)cc(O)c12`, for which the “cell-cell fusion (z-score)” value is inactive: 1.11.

As to `CCC1(c2ccc(N)cc2)CCC(=O)NC1=O` (centres undefined) [Aminoglutethimide], the “cell-cell fusion (z-score)” value is inactive: 2.23.

`O=C(Cc1ccc(-c2ccc(OCCN3CCOCC3)cc2)cn1)NCc1ccccc1`: the “cell-cell fusion (z-score)” value was inactive: -0.0667.

Turning to `CCCCCCCCCCCCCCCC[n+]1ccccc1.[Cl-]`, the “cell-cell fusion (z-score)” value was -2.72 ± 0.49.

For the compound `O=[N+]([O-])c1cccc2cn[nH]c12`, the “cell-cell fusion (z-score)” value was inactive: 3.17.

For the compound `CCc1cncnc1N1CCN(Cc2nc3cc(C(F)(F)F)ccc3[nH]2)CC1`, the “cell-cell fusion (z-score)” value was inactive: 2.54.

Take `CCN(C(C)=O)c1cccc(-c2ccnc3c(C#N)cnn23)c1`: the “cell-cell fusion (z-score)” value was inactive: 3.58.

As to `O=c1[nH]c2cc([N+](=O)[O-])c([N+](=O)[O-])cc2[nH]c1=O`, the “cell-cell fusion (z-score)” value is inactive: 1.67.

As to `O=C(O)CCc1nc2ccccc2[nH]1`, the “cell-cell fusion (z-score)” value was inactive: 0.965.

As to `O=C1c2ccccc2C(=O)c2c(NCCc3ccc(O)cc3)ccc(NCCc3ccc(O)cc3)c21`, the “cell-cell fusion (z-score)” value was active: -13.4.

For `Cl.N[C@@H](Cc1c[nH]cn1)C(=O)O` [L-Histidine hydrochloride], the “cell-cell fusion (z-score)” value was inactive: 2.96.

`CC(=O)Oc1cc2c(s1)CCN(C(C(=O)C1CC1)c1ccccc1F)C2` (centres undefined) [Prasugrel]: the “cell-cell fusion (z-score)” value was inactive: 3.22.

With `Brc1ccc([C@H]2CN3CCSC3=N2)cc1.O=C(O)C(=O)O` [S(-)-p-Bromotetramisole oxalate], the “cell-cell fusion (z-score)” value was inactive: 1.48.

As for `CC(=O)Oc1cc(C(C)C)c(OCCN(C)C)cc1C.Cl`, the “cell-cell fusion (z-score)” value is inactive: 1.66.

Consider `CC(=O)Oc1cc(C(C)C)c(OCCN(C)C)cc1C.Cl` [Moxisylyte hydrochloride], for which the “cell-cell fusion (z-score)” value is inactive: 2.4.

Take `CSC(=N)N.CSC(=N)N.O=S(=O)(O)O` [S-Methylisothiourea hemisulfate]: the “cell-cell fusion (z-score)” value is inactive: 2.56.

Turning to `C[C@]12CCC(=O)C(O)=C1CC[C@@H]1[C@H]2CC[C@]2(C)C(=O)CC[C@@H]12` [Formestane], the “cell-cell fusion (z-score)” value is inactive: 1.83.

As for `O=C(O)CCCCC1SCC2NC(=O)NC21` (centres undefined), the “cell-cell fusion (z-score)” value is inactive: 3.56.

In the case of `COc1ccc(CCN2CCC(Nc3nc4ccccc4n3Cc3ccc(F)cc3)CC2)cc1`, the “cell-cell fusion (z-score)” value was inactive: -0.408.

In the case of `C#C[C@]1(O)CCC2C3CCC4=CC(=O)CC[C@@H]4C3CC[C@@]21CC` (some centres undefined), the “cell-cell fusion (z-score)” value was inactive: 1.14.

Turning to `Cc1c2oc3c(C)ccc(C(=O)OC(C)C4NC(=O)C(C(C)C)N(C)C(=O)CN(C)C(=O)C5CCCN5C(=O)C(C(C)C)NC4=O)c3nc-2c(C(=O)OC(C)C2NC(=O)C(C(C)C)N(C)C(=O)CN(C)C(=O)C3CCCN3C(=O)C(C(C)C)NC2=O)c(N)c1=O` (centres undefined), the “cell-cell fusion (z-score)” value is inactive: -0.173.

As for `CC(=O)Nc1cccc(O)c1`, the “cell-cell fusion (z-score)” value is inactive: 1.44.

For `CCN(CCO)CCCC(C)Nc1ccnc2cc(Cl)ccc12.O=S(=O)(O)O` (centres undefined), the “cell-cell fusion (z-score)” value is inactive: 3.15.

Regarding `O=c1c(O)c(-c2ccc(O)c(O)c2)oc2cc(O)cc(O)c12` [Quercetin (Sophoretin)], the “cell-cell fusion (z-score)” value is inactive: 2.16.

On to `O=c1c(O)c(-c2ccc(O)c(O)c2)oc2cc(O)cc(O)c12` [Quercetin], for which the “cell-cell fusion (z-score)” value is inactive: 1.62.

`c1ccc2c(c1)cc1ccc3cccc4ccc2c1c34`: the “cell-cell fusion (z-score)” value is inactive: 0.626.

Consider `CN(CCOc1ccc(CC2SC(=O)NC2=O)cc1)c1ccccn1` (centres undefined) [Rosiglitazone (Avandia)], for which the “cell-cell fusion (z-score)” value is inactive: 1.83.

Regarding `CC(C)(C)Cn1c(N)nc2ccc(-c3[nH]c(C(C)(C)C)nc3-c3ccc(F)cc3)nc21.CS(=O)(=O)O.CS(=O)(=O)O`, the “cell-cell fusion (z-score)” value was inactive: 3.2.

In the case of `O=C([O-])P(=O)([O-])[O-].[Na+].[Na+].[Na+]` [Foscarnet sodium], the “cell-cell fusion (z-score)” value was inactive: 2.05.

Consider `Cn1nnc(-c2ccc(-c3ccc(N4C[C@H](COP(=O)(O)O)OC4=O)cc3F)cn2)n1` [Tedizolid Phosphate], for which the “cell-cell fusion (z-score)” value is inactive: 1.11.

For the compound `CC(C)N=c1cc2n(-c3ccc(Cl)cc3)c3ccccc3nc-2cc1Nc1ccc(Cl)cc1` [Clofazimine], the “cell-cell fusion (z-score)” value was inactive: 3.96.

As for `CCC1(c2ccc(N)cc2)CCC(=O)NC1=O` (centres undefined) [Aminoglutethimide (Cytadren)], the “cell-cell fusion (z-score)” value is inactive: 1.56.

Regarding `CNC(=O)c1ccccc1Sc1ccc2c(/C=C/c3ccccn3)n[nH]c2c1` [Axitinib], the “cell-cell fusion (z-score)” value is inactive: -1.25.

In the case of `CON.Cl`, the “cell-cell fusion (z-score)” value was inactive: 1.25.

Turning to `CC(=O)N=c1sc(S(N)(=O)=O)nn1C` [Methazolamide], the “cell-cell fusion (z-score)” value was inactive: 1.07.

`N#Cc1cc(NC(=O)C(=O)O)c(Cl)c(NC(=O)C(=O)O)c1` [Lodoxamide]: the “cell-cell fusion (z-score)” value was inactive: 0.921.

Take `NS(=O)(=O)c1cc(C2(O)NC(=O)c3ccccc32)ccc1Cl` (centres undefined): the “cell-cell fusion (z-score)” value was inactive: 0.989.

On to `O=C(NOCC1CC1)c1ccc(F)c(F)c1Nc1ccc(I)cc1Cl`, for which the “cell-cell fusion (z-score)” value was inactive: -0.481.

Consider `CCN(CC)CCOC(=O)C(c1ccccc1)C1CCCCC1.Cl` (centres undefined), for which the “cell-cell fusion (z-score)” value is inactive: 2.7.

On to `CCCCCC(=O)O[C@]1(C(C)=O)CCC2C3CCC4=CC(=O)CC[C@]4(C)C3CC[C@@]21C` (some centres undefined), for which the “cell-cell fusion (z-score)” value is inactive: 1.14.

`CC(C)(C)NCC(O)c1cc(O)cc(O)c1.O=S(=O)(O)O` (centres undefined): the “cell-cell fusion (z-score)” value was inactive: 2.62.

With `N=C1NCCN1CC(=O)O`, the “cell-cell fusion (z-score)” value is inactive: 1.95.

Consider `COC1=C(OC)C(=O)c2ccccc2C1=O` [2,3-Dimethoxy-1,4-naphthoquinone], for which the “cell-cell fusion (z-score)” value is inactive: 2.

As to `CCn1cc(C(=O)O)c(=O)c2cnc(N3CCNCC3)nc21.NCCO`, the “cell-cell fusion (z-score)” value was inactive: 2.65.

`Nc1nc(=O)c2c([nH]1)NCC(CNc1ccc(C(=O)N[C@@H](CCC(=O)[O-])C(=O)[O-])cc1)N2C=O.[Ca+2]` (some centres undefined): the “cell-cell fusion (z-score)” value was inactive: 0.0965.

For the compound `CCCCC[C@H](CC(=O)NO)C(=O)N[C@H](C(=O)N1CCC[C@H]1CO)C(C)C` [Actinonin], the “cell-cell fusion (z-score)” value is inactive: 0.117.

Turning to `C#Cc1cccc(Nc2ncnc3cc(OCCOC)c(OCCOC)cc23)c1.Cl` [Erlotinib hydrochloride], the “cell-cell fusion (z-score)” value is inactive: 0.838.

Consider `CN(C)c1cc(CNCC(C)(C)C)c(O)c2c1C[C@H]1C[C@H]3[C@H](N(C)C)C(O)=C(C(N)=O)C(=O)[C@@]3(O)C(O)=C1C2=O` [Omadacycline], for which the “cell-cell fusion (z-score)” value is inactive: 3.11.

For the compound `COCCOc1cc2nc[nH]c(=O)c2cc1OCCOC`, the “cell-cell fusion (z-score)” value was inactive: 1.01.

Turning to `CNC(C)(C)Cc1ccccc1.O=S(=O)(O)O`, the “cell-cell fusion (z-score)” value is inactive: 3.33.

As to `CC1(C)S[C@@H]2[C@H](NC(=O)[C@@H](N)c3ccc(O)cc3)C(=O)N2[C@H]1C(=O)O`, the “cell-cell fusion (z-score)” value was inactive: 1.7.

For `O=C1c2ccccc2C(=O)c2c(O)c(O)cc(O)c21`, the “cell-cell fusion (z-score)” value was inactive: 2.78.

Regarding `CC1=C(C)C(=O)C(C(CCCCCC(=O)O)c2ccccc2)=C(C)C1=O` (centres undefined), the “cell-cell fusion (z-score)” value is inactive: 0.551.

Regarding `Nc1ccc(CCNc2ncnc3c2ncn3C2OC(CO)C(O)C2O)cc1` (centres undefined) [N6-2-(4-Aminophenyl)ethyladenosine], the “cell-cell fusion (z-score)” value was inactive: 0.209.

Turning to `Cc1cc(NC(=O)Nc2ccc3c(ccn3C)c2)sn1`, the “cell-cell fusion (z-score)” value was inactive: 0.389.

With `CN1CCC[C@@H]1CCO[C@](C)(c1ccccc1)c1ccc(Cl)cc1.O=C(O)/C=C/C(=O)O` [Clemastine fumarate], the “cell-cell fusion (z-score)” value is inactive: -0.133.

In the case of `Cl.O=C(O)Cc1cccc(OCCCN(Cc2cccc(C(F)(F)F)c2Cl)CC(c2ccccc2)c2ccccc2)c1`, the “cell-cell fusion (z-score)” value is inactive: -0.311.

Regarding `C#C[C@]1(O)CC[C@H]2[C@@H]3CCc4cc(OC)ccc4[C@H]3CC[C@@]21C` [Mestranol], the “cell-cell fusion (z-score)” value is inactive: 1.88.

With `CCc1nc(N)nc(N)c1-c1ccc(Cl)cc1` [Pyrimethamine], the “cell-cell fusion (z-score)” value is inactive: 1.45.

In the case of `Clc1ccc(C(c2ccccc2Cl)C(Cl)Cl)cc1` (centres undefined) [Mitotan], the “cell-cell fusion (z-score)” value was inactive: 2.95.

Turning to `CCOc1ccc(Cc2cc([C@@H]3O[C@H](CO)[C@@H](O)[C@H](O)[C@@H]3O)ccc2Cl)cc1` [Dapagliflozin], the “cell-cell fusion (z-score)” value was inactive: 0.311.

As for `O=P(O)(O)C(O)(Cc1cccnc1)P(=O)(O)O` [Risedronic Acid], the “cell-cell fusion (z-score)” value is inactive: 3.05.

As to `OCCc1ccccc1`, the “cell-cell fusion (z-score)” value was inactive: 2.8.

Turning to `C[C@H](Cn1cnc2c(N)ncnc21)OCP(=O)(O)O` [Tenofovir], the “cell-cell fusion (z-score)” value was inactive: 0.991.

As to `CN(c1ccccc1CNc1nc(Nc2ccc3c(c2)CC(=O)N3)ncc1C(F)(F)F)S(C)(=O)=O.O`, the “cell-cell fusion (z-score)” value is active: -3.72.

Consider `C#CC(C)(O)CC` (centres undefined), for which the “cell-cell fusion (z-score)” value was inactive: 1.8.

With `O=C(O)CN1C(=O)c2cccc3cccc(c23)C1=O`, the “cell-cell fusion (z-score)” value is inactive: 1.66.

In the case of `COc1cc2ncnc(Nc3ccc(F)c(Cl)c3)c2cc1NC(=O)/C=C/CN1CCCCC1`, the “cell-cell fusion (z-score)” value was inactive: -1.19 and inactive: -0.134.

As for `COc1cc(CC(=O)O)ccc1O` [4-Hydroxy-3-methoxyphenylacetic acid], the “cell-cell fusion (z-score)” value is inactive: 2.32.

As to `CC(C)NCC(O)c1ccc(NS(C)(=O)=O)cc1.Cl` (centres undefined) [Sotalol hydrochloride], the “cell-cell fusion (z-score)” value is inactive: 2.68.

Source of the values: the supplement of paper PMC8104966.
